Results on one compound are retold here after ChEMBL document CHEMBL1828497, “Novel indole and azaindole (pyrrolopyridine) cannabinoid (CB) receptor agonists: design, synthesis, structure-activity relationships, physicochemical properties and biological activity” (Eur J Med Chem, 2011).

Molecules are shown by their SMILES. In brackets after ≈: the same amount, converted by molar mass.

Data set [1] can be described thus: Lipophilicity, log D of the compound at pH 7.4. The settings on record: buffer.
A short description of data set [2]: physchem. The settings on record: buffer, pH 7.4.
Data set [3] can be described thus: physchem. The settings on record: buffer, pH 4.
Data set [4] is described as follows: physchem. The settings on record: buffer, pH 7.4. The source holds these as a separate data set.
The nature of data set [5]: physchem. As to conditions: buffer, pH 7.4. This is another data set of the same source.

Consider `CCCCCn1cc(C(=O)c2cccc3ccccc23)c2cnccc21`, for which, in data set [1], the logD turned out to be 4.44. For the same compound, the solubility (thermodynamic) at 24 h in data set [2] is 5 µM (≈ 1.71 µg/mL); in data set [3] it was 133 µM (≈ 45.5 µg/mL). Also, the kinetic solubility was found to be 10 µM (≈ 3.42 µg/mL) in data set [4] and 30 µM (≈ 10.3 µg/mL) in data set [5].

As a reminder, the logD is lipophilicity at a set pH, counting ionised and neutral species. The term thermodynamic solubility denotes solubility found after equilibrating the solid with the medium. One may read the solubility (kinetic) as the concentration staying in solution when a stock, usually in DMSO, is diluted into the medium.
